Results deposited as PubChem BioAssay AID1259405 (NCATS, 2018)

- Assay: 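Mouse-designed siRNAs used to find CHO productivity engineering targets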 (primary screen)
- System: Chinese hamster CHO-K1 ovary cells with stable secreted eGFP expression
- Knock-down reagent: single siRNA against mouse genes, 0.8 pmol siRNA per well (2 µl of 400 nM stock)
- Time to read-out: 3 days
- Read-out: 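Percent of the per-plate non-targeting control median for intracellular GFP per well by laser scanning cytometry and for cell viability by ATP luminescence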
- Scale: GFP, % of control: higher = more GFP per well, higher productivity; viability (ATP), % of control: higher = more viable cells (more ATP)
- Hit rule: 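a knock-down is called active if GFP reaches 120% or more of non-targeting control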
Here is a random part of about 50,000 reagents. In the full data, about 4,000 (8%) are marked active. 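Mouse siRNA library applied to hamster cells; one well for each siRNA.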 Entries without a mark were called inactive. Reagent sequences are not shown.

| target gene | PubChem SID | GFP, % of control | viability (ATP), % of control |
| --- | --- | --- | --- |
| Ydjc | SID363543583 | 65.8 | 55.2 |
| Ydjc | SID363553076 | 35.3 | 22.4 |
| Ydjc | SID363558924 | 89.4 | 89.5 |
| Htatip2 | SID363540500 | 57.1 | 69.4 |
| Htatip2 | SID363542252 | 44.9 | 50.5 |
| Htatip2 | SID363567168 | 66.9 | 73.9 |
| Abhd17c | SID363543404 | 68.6 | 52.9 |
| Abhd17c | SID363552897 | 63.4 | 64.9 |
| Abhd17c | SID363558745 | 78.9 | 64.9 |
| Tmx3 | SID363568821 | 85.5 | 122 |
| Tmx3 | SID363576213 | 50.7 | 64.6 |
| Tmx3 | SID363579029 | 44.1 | 54.5 |
| Cs | SID363573117 | 59.5 | 67.8 |
| Cs | SID363577693 | 54.6 | 74.2 |
| Cs | SID363581213 | 104 | 81.7 |
| Or6x1 | SID363544782 | 48.8 | 50.2 |
| Or6x1 | SID363551110 | 70.8 | 75.4 |
| Or6x1 | SID363557659 | 64.2 | 72.1 |
| Cdh3 | SID363572981 | 79.5 | 86 |
| Cdh3 | SID363577557 | 70 | 51.7 |
| Cdh3 | SID363581077 | 120 (active) | 86.5 |
| Cep131 | SID363546653 | 91.4 | 103 |
| Cep131 | SID363548409 | 63.9 | 75.3 |
| Cep131 | SID363560587 | 45.1 | 59.1 |
| Fggy | SID363547263 | 110 | 99.5 |
| Fggy | SID363558032 | 37.7 | 35.7 |
| Fggy | SID363559790 | 67.1 | 70 |
| Or12e9 | SID363544554 | 156 (active) | 47.3 |
| Or12e9 | SID363550882 | 88.6 | 62.4 |
| Or12e9 | SID363557431 | 59.6 | 106 |
| Or8k3b | SID363554334 | 84 | 48.6 |
| Or8k3b | SID363567781 | 140 (active) | 111 |
| Or8k3b | SID363585138 | 71.6 | 119 |
| AY358078 | SID363540258 | 185 (active) | 67.5 |
| AY358078 | SID363542010 | 85.9 | 70.2 |
| AY358078 | SID363566926 | 67.5 | 87.3 |
| Hsd3b3 | SID363556615 | 70.4 | 60.3 |
| Hsd3b3 | SID363563519 | 74.4 | 70.9 |
| Hsd3b3 | SID363587065 | 45.4 | 67.6 |
| Fmod | SID363568890 | 125 (active) | 116 |
| Fmod | SID363576282 | 62.7 | 60.7 |
| Fmod | SID363579098 | 107 | 65.1 |
| Rev3l | SID363569653 | 36 | 43.9 |
| Rev3l | SID363577397 | 105 | 83.5 |
| Rev3l | SID363578805 | 51.7 | 53.9 |
| Aebp1 | SID363574438 | 78 | 78.5 |
| Aebp1 | SID363575494 | 44.2 | 50.4 |
| Aebp1 | SID363580070 | 78.2 | 69.4 |

Continued, starting with the last 3 of the part before.
| target gene | PubChem SID | GFP, % of control | viability (ATP), % of control |
| --- | --- | --- | --- |
| Aebp1 | SID363574438 | 78 | 78.5 |
| Aebp1 | SID363575494 | 44.2 | 50.4 |
| Aebp1 | SID363580070 | 78.2 | 69.4 |
| Auts2 | SID363539821 | 72.9 | 92.2 |
| Auts2 | SID363561122 | 81.6 | 108 |
| Auts2 | SID363565212 | 43 | 25.9 |
| Sema4a | SID363572529 | 113 | 88 |
| Sema4a | SID363577809 | 105 | 91.1 |
| Sema4a | SID363582033 | 93.1 | 83.1 |
| Ugt2b35 | SID363570698 | 101 | 126 |
| Ugt2b35 | SID363579498 | 69.8 | 92.7 |
| Ugt2b35 | SID363583370 | 38.4 | 53 |
| Tbc1d2b | SID363545257 | 79.5 | 41.8 |
| Tbc1d2b | SID363548770 | 82.3 | 75.2 |
| Tbc1d2b | SID363562576 | 27.3 | 55.6 |
| Dyrk4 | SID363570991 | 70 | 84.3 |
| Dnajc8 | SID363572545 | 66.2 | 80.2 |
| Dnajc8 | SID363577825 | 103 | 77.7 |
| Dnajc8 | SID363582049 | 91.1 | 121 |
| Eola1 | SID363540773 | 110 | 104 |
| Eola1 | SID363543224 | 62.8 | 65.6 |
| Eola1 | SID363552717 | 80.2 | 52.3 |
| Nlrp3 | SID363550065 | 110 | 96.2 |
| Nlrp3 | SID363564574 | 70.3 | 72.4 |
| Nlrp3 | SID363588119 | 72.5 | 68.9 |
| AU018091 | SID363547809 | 82 | 122 |
| AU018091 | SID363558578 | 66.2 | 63.7 |
| AU018091 | SID363560336 | 64.3 | 71.6 |
| Mybl2 | SID363573671 | 68 | 61.1 |
| Mybl2 | SID363581415 | 48.6 | 47.3 |
| Mybl2 | SID363583879 | 80.4 | 89.8 |
| Fchsd2 | SID363540081 | 45.4 | 55.4 |
| Fchsd2 | SID363561382 | 65.5 | 57.8 |
| Fchsd2 | SID363564418 | 49.7 | 59.8 |
| Gaa | SID363569749 | 103 | 82.9 |
| Gaa | SID363576789 | 67.7 | 63.7 |
| Gaa | SID363578197 | 84.4 | 89.7 |
| Trim14 | SID363556257 | 90 | 82.8 |
| Trim14 | SID363586707 | 76 | 76.9 |
| Trim14 | SID363588815 | 84.5 | 60.9 |
